Reference: the supplement of paper PMC7666118
The other results are listed elsewhere or left out.

Sequences of proteins named here, by UniProt entry; tags and fusion partners are left off. A change or cut given only in a name is not applied to a line headed by its entry.
UniProt Q5BJH7: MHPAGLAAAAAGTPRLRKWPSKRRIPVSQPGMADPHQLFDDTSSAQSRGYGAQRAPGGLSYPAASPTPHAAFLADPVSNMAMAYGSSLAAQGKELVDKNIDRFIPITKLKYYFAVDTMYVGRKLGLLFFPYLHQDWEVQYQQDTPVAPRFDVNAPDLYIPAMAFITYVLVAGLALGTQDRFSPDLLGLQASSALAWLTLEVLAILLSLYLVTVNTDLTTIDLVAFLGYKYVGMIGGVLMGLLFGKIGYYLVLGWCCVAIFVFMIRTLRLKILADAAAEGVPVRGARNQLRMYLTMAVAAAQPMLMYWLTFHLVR
UniProt Q9UIJ5: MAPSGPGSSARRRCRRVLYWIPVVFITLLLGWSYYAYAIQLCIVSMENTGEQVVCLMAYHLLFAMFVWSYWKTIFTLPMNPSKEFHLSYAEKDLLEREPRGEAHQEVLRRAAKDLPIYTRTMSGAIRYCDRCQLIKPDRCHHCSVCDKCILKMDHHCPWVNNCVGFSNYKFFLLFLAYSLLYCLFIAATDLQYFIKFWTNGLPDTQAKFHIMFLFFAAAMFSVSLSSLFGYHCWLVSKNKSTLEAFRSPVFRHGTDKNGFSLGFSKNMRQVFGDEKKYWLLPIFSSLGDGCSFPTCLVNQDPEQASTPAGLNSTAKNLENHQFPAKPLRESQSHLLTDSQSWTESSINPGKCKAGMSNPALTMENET
UniProt Q9P2E3: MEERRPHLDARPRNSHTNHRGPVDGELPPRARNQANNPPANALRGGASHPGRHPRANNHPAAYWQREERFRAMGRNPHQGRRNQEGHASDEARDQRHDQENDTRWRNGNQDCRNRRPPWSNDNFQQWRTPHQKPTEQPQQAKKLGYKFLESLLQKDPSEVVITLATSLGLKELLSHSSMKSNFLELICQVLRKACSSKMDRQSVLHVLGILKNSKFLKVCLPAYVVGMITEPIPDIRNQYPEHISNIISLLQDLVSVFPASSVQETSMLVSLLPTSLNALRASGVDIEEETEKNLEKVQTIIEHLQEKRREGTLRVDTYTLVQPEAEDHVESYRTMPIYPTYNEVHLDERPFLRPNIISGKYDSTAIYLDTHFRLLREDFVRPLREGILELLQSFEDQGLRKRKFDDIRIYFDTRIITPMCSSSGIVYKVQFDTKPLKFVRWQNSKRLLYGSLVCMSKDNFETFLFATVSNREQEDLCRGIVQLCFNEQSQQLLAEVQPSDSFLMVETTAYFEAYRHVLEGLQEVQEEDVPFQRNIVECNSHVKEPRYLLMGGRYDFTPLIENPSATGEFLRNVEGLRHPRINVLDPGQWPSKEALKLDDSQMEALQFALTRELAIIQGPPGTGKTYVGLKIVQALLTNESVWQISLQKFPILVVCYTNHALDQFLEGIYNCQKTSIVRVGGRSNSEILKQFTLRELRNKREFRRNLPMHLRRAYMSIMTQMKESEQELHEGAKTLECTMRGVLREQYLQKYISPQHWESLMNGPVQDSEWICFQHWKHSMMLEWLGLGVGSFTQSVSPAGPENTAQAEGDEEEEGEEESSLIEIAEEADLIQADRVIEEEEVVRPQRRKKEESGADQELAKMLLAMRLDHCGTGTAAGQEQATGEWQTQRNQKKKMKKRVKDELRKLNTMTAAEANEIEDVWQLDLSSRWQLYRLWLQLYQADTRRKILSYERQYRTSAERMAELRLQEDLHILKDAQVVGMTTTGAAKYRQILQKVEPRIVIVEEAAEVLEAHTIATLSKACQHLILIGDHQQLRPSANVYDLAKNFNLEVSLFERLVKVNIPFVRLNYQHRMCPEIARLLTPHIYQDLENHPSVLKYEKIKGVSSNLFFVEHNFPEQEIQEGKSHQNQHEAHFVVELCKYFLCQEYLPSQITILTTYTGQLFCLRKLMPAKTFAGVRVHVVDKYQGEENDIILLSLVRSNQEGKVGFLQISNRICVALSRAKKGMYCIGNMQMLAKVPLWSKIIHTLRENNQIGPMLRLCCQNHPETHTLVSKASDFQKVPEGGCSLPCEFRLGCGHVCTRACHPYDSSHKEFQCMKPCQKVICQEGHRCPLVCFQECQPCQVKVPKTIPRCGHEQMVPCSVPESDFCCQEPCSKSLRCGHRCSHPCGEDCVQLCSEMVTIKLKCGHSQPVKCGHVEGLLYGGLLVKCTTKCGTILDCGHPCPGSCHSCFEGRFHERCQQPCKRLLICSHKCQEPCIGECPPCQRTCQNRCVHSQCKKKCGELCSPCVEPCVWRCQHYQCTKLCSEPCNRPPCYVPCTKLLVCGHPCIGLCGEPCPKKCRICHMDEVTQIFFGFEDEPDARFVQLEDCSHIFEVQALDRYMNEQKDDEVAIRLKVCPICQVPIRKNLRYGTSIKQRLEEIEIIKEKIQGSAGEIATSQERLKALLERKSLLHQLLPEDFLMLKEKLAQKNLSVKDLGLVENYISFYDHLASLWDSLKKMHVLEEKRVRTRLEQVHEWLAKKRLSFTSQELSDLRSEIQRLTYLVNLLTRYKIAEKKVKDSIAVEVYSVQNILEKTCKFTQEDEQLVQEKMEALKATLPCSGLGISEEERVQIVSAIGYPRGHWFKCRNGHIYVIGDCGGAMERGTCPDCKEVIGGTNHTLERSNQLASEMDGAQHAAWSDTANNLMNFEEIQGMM
UniProt Q7Z739: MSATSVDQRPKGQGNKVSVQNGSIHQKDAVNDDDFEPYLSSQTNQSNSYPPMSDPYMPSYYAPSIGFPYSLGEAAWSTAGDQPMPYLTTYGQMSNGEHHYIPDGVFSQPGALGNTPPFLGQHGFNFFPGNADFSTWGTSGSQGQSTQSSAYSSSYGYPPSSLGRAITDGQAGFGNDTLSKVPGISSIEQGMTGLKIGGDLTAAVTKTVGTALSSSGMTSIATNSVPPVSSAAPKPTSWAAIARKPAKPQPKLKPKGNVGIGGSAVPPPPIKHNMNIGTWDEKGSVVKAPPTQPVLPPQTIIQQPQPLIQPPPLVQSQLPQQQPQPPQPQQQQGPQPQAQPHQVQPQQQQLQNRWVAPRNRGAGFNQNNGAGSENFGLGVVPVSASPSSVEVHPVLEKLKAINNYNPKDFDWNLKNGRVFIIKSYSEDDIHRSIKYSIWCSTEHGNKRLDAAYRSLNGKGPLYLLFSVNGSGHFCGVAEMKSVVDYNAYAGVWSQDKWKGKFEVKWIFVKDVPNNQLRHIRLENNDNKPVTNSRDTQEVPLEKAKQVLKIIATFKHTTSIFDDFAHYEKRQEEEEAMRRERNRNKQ
UniProt A4D1P6: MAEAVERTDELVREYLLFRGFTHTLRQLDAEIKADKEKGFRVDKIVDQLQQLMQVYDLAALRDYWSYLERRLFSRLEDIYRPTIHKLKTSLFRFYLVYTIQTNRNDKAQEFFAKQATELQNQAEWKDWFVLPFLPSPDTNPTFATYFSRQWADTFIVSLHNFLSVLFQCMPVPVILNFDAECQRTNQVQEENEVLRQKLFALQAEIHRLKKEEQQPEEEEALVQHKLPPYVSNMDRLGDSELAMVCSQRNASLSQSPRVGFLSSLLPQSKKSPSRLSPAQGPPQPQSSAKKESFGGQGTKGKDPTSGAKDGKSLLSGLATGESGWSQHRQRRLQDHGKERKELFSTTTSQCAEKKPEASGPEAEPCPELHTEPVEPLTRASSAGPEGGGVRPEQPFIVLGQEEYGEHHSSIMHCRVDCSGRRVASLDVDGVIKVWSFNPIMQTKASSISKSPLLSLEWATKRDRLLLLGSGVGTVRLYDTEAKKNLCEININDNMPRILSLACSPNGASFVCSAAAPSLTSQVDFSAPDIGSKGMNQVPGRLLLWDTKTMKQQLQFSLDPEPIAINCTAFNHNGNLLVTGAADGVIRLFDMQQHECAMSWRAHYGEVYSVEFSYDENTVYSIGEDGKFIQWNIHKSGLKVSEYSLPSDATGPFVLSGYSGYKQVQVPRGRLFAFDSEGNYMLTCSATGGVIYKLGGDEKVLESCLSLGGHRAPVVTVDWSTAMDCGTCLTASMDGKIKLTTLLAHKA
UniProt P27348: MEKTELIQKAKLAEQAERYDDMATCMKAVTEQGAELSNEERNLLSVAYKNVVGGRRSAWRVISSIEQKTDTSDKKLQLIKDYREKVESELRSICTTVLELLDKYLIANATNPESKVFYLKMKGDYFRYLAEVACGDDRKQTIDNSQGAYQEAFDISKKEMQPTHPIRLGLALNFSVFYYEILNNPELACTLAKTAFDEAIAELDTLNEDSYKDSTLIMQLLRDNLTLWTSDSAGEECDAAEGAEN
UniProt Q86U90: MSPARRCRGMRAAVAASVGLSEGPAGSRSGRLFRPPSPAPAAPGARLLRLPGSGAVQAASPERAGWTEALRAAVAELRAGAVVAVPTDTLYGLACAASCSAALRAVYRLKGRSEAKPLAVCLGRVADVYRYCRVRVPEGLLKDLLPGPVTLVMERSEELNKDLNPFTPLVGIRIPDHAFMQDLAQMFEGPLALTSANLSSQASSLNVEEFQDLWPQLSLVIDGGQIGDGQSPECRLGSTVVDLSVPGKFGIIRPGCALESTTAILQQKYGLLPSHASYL
UniProt Q562E7: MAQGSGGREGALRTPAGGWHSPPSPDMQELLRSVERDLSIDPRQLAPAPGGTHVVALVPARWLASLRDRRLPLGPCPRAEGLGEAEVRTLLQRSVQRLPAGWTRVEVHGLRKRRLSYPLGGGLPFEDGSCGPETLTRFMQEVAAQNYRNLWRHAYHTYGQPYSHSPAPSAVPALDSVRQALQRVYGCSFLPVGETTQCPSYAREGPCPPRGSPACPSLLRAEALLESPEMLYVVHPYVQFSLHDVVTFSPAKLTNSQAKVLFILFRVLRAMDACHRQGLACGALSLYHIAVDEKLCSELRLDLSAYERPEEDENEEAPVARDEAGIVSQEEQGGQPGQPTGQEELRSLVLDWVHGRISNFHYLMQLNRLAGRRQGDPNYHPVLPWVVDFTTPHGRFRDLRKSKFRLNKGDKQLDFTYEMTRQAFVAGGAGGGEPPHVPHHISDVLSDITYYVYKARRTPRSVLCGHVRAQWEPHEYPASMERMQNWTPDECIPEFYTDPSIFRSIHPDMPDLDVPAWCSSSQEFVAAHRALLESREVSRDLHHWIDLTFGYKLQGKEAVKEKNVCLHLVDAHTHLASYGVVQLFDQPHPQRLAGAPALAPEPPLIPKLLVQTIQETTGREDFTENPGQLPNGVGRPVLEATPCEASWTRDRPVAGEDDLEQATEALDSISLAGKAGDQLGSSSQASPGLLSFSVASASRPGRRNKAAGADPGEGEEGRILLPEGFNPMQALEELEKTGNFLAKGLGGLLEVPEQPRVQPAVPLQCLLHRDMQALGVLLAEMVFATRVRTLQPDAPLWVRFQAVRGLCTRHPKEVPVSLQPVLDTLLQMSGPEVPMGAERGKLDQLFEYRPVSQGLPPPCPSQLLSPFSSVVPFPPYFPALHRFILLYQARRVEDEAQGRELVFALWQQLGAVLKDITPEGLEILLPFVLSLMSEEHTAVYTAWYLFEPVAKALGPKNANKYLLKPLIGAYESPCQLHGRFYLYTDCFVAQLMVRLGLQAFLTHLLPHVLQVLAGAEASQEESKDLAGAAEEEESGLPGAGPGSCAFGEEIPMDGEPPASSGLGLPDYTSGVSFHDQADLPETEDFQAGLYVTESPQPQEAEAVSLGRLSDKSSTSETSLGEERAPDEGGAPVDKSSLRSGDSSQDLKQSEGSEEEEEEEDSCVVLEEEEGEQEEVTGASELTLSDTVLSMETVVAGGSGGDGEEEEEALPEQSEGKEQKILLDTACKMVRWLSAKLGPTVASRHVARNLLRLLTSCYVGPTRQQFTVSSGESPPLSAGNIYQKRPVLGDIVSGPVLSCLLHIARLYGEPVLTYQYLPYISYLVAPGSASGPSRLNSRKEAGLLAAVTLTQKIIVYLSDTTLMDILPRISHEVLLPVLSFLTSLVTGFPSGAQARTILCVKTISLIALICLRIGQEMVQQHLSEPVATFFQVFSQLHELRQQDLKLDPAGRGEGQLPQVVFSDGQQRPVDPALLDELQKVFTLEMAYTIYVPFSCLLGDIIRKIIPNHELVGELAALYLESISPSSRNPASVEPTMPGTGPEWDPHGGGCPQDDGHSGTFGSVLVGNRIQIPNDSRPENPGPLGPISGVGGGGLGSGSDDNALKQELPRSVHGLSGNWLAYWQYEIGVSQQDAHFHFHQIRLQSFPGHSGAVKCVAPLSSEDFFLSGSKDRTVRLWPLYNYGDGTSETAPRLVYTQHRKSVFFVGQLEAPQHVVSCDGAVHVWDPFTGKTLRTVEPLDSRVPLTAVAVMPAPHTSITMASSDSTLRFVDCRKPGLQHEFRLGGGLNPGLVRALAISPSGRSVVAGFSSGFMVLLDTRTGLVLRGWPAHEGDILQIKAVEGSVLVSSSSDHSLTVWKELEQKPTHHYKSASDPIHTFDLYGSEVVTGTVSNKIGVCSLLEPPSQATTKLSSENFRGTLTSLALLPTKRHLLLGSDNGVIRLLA
UniProt Q9BRP8: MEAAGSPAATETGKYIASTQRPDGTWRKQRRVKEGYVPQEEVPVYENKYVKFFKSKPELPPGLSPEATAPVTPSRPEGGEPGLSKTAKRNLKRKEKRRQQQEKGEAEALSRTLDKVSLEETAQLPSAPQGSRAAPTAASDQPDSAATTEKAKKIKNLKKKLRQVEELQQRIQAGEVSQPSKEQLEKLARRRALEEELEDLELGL

Compound: COc1ccc(Cn2ccc3cc(C)c(C(=O)NO)cc32)cc1
Assay: dose-dependent thermal stabilisation call (2D-TPP, DLPTP, 10% FDR) (binary (1 = stabilised)); higher = stabilised by the compound
Conditions: system: HL-60 intact cells; concentration range 0.04-10 µM
Description: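 2D thermal proteome profiling in intact HL-60 cells treated with BRD-3811 (0, 0.04, 0.29, 2, 10 uM) for 90 min at 37 C, then heated 3 min at one of 12 temperatures (42-63.9 C). Soluble protein was quantified by TMT10 MS. The value is the DLPTP call of the paper: dose-dependent thermal stabilisation over all temperatures at 10% FDR (F-test of a dose-response against a flat model); one experiment, one call per tested protein.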

Target | dose-dependent thermal stabilisation call
ZKSCAN4 (UniProt Q969J2) | inactive: 0
YIF1B (UniProt Q5BJH7) | inactive: 0
XPR1 (UniProt Q9UBH6) | inactive: 0
XRCC6 (UniProt P12956) | inactive: 0
ZNF706 (UniProt Q9Y5V0) | inactive: 0
ZC3H8 (UniProt Q8N5P1) | inactive: 0
WDSUB1 (UniProt Q8N9V3) | inactive: 0
ZFR (UniProt Q96KR1) | inactive: 0
ZC3H18 (UniProt Q86VM9) | inactive: 0
WDR79 (UniProt Q9BUR4) | inactive: 0
ZC3HC1 (UniProt Q86WB0) | inactive: 0
ZNF740 (UniProt Q8NDX6) | inactive: 0
ZCCHC6 (UniProt Q5VYS8) | inactive: 0
ZCCHC9 (UniProt Q8N567) | inactive: 0
WDR46 (UniProt O15213) | inactive: 0
ZMIZ1 (UniProt Q9ULJ6) | inactive: 0
ZDHHC2 (UniProt Q9UIJ5) | inactive: 0
ZCCHC3 (UniProt Q9NUD5) | inactive: 0

Shown with each value named: entries from further up.
WDSUB1 (UniProt Q8N9V3)
  dose-dependent thermal stabilisation call: inactive: 0
ZFR (UniProt Q96KR1)
  dose-dependent thermal stabilisation call: inactive: 0

The listing continues:

Target | dose-dependent thermal stabilisation call
ZNF407 (UniProt Q9C0G0) | inactive: 0
ZNFX1 (UniProt Q9P2E3) | inactive: 0
WDR33 (UniProt Q9C0J8) | inactive: 0
XTP3TPA (UniProt Q9H773) | inactive: 0
YTHDF3 (UniProt Q7Z739) | inactive: 0
WDR82 (UniProt Q6UXN9) | inactive: 0
ZYG11BL (UniProt Q7Z7L7) | inactive: 0
WDR26 (UniProt Q9H7D7) | inactive: 0
WDR91 (UniProt A4D1P6) | inactive: 0
ZC3H7B (UniProt Q9UGR2) | inactive: 0
ZNF187 (UniProt Q16670) | inactive: 0
YWHAQ (UniProt P27348) | inactive: 0
ZNF217 (UniProt O75362) | inactive: 0
YRDC (UniProt Q86U90) | inactive: 0
WDR81 (UniProt Q562E7) | inactive: 0
WNK1 (UniProt Q9H4A3) | inactive: 0
WDR77 (UniProt Q9BQA1) | inactive: 0
WIBG (UniProt Q9BRP8) | inactive: 0
